The text below walks through data of patent US20170354129A1.

By UniProt entry, the sequences of proteins in these tests, tags left out. Residues count along the entry.
UniProt P04114, residues 28-4563: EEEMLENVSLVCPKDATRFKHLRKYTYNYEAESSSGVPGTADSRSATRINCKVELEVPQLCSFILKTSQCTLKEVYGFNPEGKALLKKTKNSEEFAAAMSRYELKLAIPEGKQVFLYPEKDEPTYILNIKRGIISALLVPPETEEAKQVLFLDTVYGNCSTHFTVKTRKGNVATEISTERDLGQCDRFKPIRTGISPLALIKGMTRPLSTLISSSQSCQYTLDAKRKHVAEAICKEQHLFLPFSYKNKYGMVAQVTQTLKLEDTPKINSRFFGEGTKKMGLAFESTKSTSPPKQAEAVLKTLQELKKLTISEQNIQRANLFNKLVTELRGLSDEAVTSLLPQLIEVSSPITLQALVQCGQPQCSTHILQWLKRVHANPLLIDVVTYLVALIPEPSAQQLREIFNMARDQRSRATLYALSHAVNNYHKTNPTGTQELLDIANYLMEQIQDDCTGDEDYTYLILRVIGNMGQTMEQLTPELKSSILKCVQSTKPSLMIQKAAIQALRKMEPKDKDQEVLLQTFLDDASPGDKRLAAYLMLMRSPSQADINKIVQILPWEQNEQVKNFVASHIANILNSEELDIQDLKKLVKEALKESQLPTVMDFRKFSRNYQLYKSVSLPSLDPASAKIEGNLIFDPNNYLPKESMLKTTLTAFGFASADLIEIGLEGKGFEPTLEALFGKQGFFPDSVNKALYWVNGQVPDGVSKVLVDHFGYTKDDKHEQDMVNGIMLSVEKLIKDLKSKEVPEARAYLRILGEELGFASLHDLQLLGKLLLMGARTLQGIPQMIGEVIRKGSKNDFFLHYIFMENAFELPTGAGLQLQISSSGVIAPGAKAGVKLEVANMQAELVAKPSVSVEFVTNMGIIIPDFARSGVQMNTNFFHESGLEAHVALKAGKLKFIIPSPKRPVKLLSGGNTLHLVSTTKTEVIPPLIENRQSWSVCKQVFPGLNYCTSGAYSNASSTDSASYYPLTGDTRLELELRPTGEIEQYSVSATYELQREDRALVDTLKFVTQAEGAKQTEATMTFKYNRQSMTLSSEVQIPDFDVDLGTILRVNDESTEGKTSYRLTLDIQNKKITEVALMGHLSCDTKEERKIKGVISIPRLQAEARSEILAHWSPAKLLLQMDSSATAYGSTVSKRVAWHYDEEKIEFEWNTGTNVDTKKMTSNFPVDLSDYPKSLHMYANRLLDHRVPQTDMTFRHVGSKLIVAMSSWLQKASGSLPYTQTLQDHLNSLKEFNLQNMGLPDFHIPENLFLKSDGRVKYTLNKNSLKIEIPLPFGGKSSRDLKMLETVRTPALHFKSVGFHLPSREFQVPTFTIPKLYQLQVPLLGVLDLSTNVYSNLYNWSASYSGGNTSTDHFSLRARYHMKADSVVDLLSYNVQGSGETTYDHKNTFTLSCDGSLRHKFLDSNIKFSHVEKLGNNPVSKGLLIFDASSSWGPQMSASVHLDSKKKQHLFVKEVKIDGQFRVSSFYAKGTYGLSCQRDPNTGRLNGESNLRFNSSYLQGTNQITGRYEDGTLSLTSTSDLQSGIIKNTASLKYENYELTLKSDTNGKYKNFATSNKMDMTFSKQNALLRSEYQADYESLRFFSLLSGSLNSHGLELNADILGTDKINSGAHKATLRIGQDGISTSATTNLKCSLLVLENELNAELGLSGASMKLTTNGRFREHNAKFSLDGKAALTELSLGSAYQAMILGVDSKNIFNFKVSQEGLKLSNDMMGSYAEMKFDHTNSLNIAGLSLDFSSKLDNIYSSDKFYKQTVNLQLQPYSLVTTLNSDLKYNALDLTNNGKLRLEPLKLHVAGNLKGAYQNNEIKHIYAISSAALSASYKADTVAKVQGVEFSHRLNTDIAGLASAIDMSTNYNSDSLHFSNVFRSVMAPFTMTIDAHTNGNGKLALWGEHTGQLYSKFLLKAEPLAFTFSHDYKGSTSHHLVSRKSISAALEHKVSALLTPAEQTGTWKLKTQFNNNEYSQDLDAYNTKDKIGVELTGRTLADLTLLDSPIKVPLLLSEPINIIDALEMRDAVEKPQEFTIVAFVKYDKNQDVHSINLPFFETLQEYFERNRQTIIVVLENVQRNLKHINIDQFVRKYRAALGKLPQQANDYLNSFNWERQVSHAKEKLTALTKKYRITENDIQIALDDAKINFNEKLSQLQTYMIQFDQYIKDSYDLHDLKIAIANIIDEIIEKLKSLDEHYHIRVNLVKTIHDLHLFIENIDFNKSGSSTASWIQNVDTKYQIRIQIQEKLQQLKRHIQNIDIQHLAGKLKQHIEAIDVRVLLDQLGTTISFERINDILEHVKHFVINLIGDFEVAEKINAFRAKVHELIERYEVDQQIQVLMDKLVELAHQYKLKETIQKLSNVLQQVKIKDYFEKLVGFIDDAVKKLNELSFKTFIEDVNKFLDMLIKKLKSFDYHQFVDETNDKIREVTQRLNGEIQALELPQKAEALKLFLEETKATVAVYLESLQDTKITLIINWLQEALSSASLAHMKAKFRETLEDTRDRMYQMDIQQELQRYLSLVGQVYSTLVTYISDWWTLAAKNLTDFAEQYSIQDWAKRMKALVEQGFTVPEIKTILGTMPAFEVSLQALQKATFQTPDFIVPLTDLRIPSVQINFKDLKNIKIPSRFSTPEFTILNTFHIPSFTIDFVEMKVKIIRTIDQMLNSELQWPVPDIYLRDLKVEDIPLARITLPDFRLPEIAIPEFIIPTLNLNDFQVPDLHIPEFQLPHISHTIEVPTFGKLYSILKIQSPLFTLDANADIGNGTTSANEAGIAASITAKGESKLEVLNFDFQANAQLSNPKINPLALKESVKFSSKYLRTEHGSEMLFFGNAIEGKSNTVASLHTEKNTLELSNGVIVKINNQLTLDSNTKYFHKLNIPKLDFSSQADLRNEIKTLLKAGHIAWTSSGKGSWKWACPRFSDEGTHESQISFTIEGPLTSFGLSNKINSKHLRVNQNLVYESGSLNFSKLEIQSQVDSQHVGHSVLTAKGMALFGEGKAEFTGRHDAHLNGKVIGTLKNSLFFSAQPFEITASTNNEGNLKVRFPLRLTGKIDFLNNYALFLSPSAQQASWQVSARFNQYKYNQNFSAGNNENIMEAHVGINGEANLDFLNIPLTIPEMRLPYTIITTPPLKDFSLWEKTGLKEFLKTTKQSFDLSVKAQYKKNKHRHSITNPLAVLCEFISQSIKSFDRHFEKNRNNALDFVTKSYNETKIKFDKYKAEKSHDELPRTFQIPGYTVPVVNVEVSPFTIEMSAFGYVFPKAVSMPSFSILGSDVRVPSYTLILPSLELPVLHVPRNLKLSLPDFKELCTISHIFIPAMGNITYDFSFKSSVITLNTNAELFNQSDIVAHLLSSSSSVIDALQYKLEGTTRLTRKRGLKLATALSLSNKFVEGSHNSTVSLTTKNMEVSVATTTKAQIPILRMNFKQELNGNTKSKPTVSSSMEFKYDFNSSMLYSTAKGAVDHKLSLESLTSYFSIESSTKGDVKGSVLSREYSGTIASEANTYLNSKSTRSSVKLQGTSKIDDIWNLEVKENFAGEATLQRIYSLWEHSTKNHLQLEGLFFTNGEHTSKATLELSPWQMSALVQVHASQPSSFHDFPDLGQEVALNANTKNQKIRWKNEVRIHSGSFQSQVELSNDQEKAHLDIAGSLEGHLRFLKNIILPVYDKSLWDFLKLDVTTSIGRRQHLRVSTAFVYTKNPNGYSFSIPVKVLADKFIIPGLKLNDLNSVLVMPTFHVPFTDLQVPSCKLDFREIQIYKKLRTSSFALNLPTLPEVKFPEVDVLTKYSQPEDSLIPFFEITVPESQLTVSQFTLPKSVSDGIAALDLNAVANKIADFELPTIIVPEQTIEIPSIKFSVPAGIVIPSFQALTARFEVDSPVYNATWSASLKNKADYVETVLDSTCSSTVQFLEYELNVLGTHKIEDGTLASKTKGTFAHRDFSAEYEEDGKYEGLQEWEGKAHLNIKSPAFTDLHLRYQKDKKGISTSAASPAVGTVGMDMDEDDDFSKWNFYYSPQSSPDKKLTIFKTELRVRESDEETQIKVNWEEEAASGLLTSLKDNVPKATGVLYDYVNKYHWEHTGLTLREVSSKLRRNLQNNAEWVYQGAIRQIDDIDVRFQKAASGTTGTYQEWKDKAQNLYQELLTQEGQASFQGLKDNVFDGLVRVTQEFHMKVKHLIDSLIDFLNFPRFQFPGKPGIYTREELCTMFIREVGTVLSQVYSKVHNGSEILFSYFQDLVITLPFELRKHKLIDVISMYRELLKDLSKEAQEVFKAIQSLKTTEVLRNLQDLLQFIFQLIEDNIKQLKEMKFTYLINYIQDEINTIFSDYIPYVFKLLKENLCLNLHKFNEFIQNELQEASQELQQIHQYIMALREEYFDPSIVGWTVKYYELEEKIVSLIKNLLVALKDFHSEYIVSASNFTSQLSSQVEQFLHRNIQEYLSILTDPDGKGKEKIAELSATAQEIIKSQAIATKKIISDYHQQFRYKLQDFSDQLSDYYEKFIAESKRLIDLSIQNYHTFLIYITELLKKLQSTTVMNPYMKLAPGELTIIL

No constants are given. Whether binding was seen depends on the method and setting. Some results given as binding are weak or reduced against the parent protein; the word gives no strength.

Experiment [1] concerns the target LDL (unmodified low density lipoprotein) (UniProt P04114). Description: direct ELISA, antigen on the plate, anti-His-HRP detection.
Experiment [2] concerns the target acetylated LDL (UniProt P04114). The description is as above.
For experiment [3], the target named is fully oxidized LDL (UniProt P04114). The experiment is described as above.
Experiment [4] concerns the target partially oxidized LDL (UniProt P04114). The experiment is described as above.
The target of experiment [5] is fully oxidized LDL (UniProt P04114). Description: ELISA of soluble single chain antibody on oxidized LDL.

B1: single chain antibody γ+κ 5 expressed from pET-22b(+) in E. coli BL21 (DE3), refolded and purified (scFv, not shown: small tags and cut ends)
scFv: MAQVQLQQSGPGLVKPSQTLSLTCAISGDSVSSRDAAWNWIRQSPSRGLEWLGRTYYRSEWYTDYAVSLESRLTVNPDTSRNQFSLQLNSVTPEDTAVYLCARGSSWGHAPAFFDYWGQGTLVTVSSGGGGSGGGGSGGGGSDIQMTQSPSSLSASVEDRVAITCRASQSVSTYVAWYQQKPGKAPKLLISQASSLENGVPSRFSGSGSGTDFTLTISSLQPEDFATYYCQQYTTYPYTFGQGTKLEIKR
On to B1, for which the binding result in experiment [1], in experiment [2], in experiment [3] and in experiment [4] was “binds” throughout.

B2: single chain antibody γ+κ 5, pCANTAB5E clone 5 (phage presented and soluble forms) (scFv, not shown: large carriers)
scFv: MAQVQLQQSGPGLVKPSQTLSLTCAISGDSVSSRDAAWNWIRQSPSRGLEWLGRTYYRSEWYTDYAVSLESRLTVNPDTSRNQFSLQLNSVTPEDTAVYLCARGSSWGHAPAFFDYWGQGTLVTVSSGGGGSGGGGSGGGGSDIQMTQSPSSLSASVEDRVAITCRASQSVSTYVAWYQQKPGKAPKLLISQASSLENGVPSRFSGSGSGTDFTLTISSLQPEDFATYYCQQYTTYPYTFGQGTKLEIKR
Turning to B2, in experiment [5], the binding entry is recorded as “binds”.

B3: single chain antibody γ+κ 96, pCANTAB5E clone 96 (phage presented and soluble forms) (scFv, not shown: small tags and cut ends)
scFv: MAEVQLVESGAEAKKPGESLKISCKGSGYSFTTNWIGWVRQLPGKGLDWMGIIYPDDSDTRYSPSFQGQVTISADKSISTAYLQWNSLKASDTAMYYCARRQWGSFDLWGQGTMVTVSSGGGGSGGGGSGGGGSEIVLTQSPATLSLSPGERATLSCRASQSVSSFLAWYQQKPGQAPRLLIYGASSRATGIPDRFSGSGSGTDFTLTINRLEPEDFAVYYCQYYGSSGTFGQGTKVEIKR
Consider B3, for which the binding result in experiment [5] was “binds”.

B4: single chain antibody γ+κ 19, pCANTAB5E clone 19 (phage presented and soluble forms) (scFv, not shown: small tags and cut ends)
scFv: MAEVQLVESGAEVKNPGASVKVSCKASGYTLTGYYMHWVRQAPGQGLEWMGGIIPMYGTPTYAPRFQGRVTFTADYSTNTVYMELRSLRSEDTAVFYCARQADSASYLDYWGQGTLVTVSSGGGGSGGGGSGGGGSDVVMTQSPGTLSLSPGERATLSCRASQSLDSSYLAWYQQKPGRAPRLLIYGASDRDTGIPDRFSGSGSGTDFTLTISRLEPEDFAVYYCQQYGRSRTFGQGTKLEIKR
Take B4: the binding result in experiment [5] is “binds”.

B5: single chain antibody γ+κ 12, pCANTAB5E clone 12 (phage presented and soluble forms) (scFv, not shown: small tags and cut ends)
scFv: MAQVQLQQSGPGLVKPSQTLSLTCDISGDSISTNGAAWNWIRQSPSRGLEWLGRTFYRSKWYNDYAVSVKSRMIINPDTSKNQFSLQLSSVTPEDTAVYYCARVACSGGTCLDGIDVWGQGTTVTVSSGGGGSGGGGSGGGGSDIVMTQSPSSLSASVGERVTITCRASQAIRNDLGWYQQKPGKAPKLLVYSASNLQSGVPSRFSGSGSGTDFTLTISSLQPEDFATYYCQQYHSYPRTFSQGTKLEIKR
As to B5, the binding entry in experiment [5] is listed as “binds”.

B6: single chain antibody γ+κ 40, pCANTAB5E clone 40 (phage presented and soluble forms) (scFv, not shown: small tags and cut ends)
scFv: MAQVQLVQSGVELRKPGDSVKVSCKASGYSVNTHGMSWVRQAPGQGLEWLGRISSYIGLTKFAQKFQDRVTLTTDTSTNTAYLEMRSLKSDDTAVYFCGRDDYEYDAFDVWGQGTMVTVSSGGGGSGGGGSSGGGSEIVLTQSPATLSVSPGERATLSCRTTESVTDSQLAWYQQKPGQAPRLLIYGPSTRATGIPDRFSGSGSGTDFTLTISGLEPEDFAVYYCQQRNSWYTFGQGTKLEIKR
Take B6: the binding result in experiment [5] is listed as “binds”.
